Data: PMC11488099
No constants are given. Whether binding was seen depends on the method and setting. Binding seen in cells or lysates may run through a third protein. Some results given as binding are weak or reduced against the parent protein; the word gives no strength.

Amino acid sequences for entries named in this document (tags omitted).
UniProt P48432: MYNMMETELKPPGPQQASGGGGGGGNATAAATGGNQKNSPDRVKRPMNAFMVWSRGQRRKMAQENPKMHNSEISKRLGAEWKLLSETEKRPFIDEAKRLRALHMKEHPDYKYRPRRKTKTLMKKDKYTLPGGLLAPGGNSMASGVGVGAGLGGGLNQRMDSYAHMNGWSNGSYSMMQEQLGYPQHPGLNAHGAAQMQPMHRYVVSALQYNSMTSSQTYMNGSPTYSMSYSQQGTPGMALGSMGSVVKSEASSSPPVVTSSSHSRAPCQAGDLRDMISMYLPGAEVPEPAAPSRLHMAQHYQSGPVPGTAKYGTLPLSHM
UniProt P45481: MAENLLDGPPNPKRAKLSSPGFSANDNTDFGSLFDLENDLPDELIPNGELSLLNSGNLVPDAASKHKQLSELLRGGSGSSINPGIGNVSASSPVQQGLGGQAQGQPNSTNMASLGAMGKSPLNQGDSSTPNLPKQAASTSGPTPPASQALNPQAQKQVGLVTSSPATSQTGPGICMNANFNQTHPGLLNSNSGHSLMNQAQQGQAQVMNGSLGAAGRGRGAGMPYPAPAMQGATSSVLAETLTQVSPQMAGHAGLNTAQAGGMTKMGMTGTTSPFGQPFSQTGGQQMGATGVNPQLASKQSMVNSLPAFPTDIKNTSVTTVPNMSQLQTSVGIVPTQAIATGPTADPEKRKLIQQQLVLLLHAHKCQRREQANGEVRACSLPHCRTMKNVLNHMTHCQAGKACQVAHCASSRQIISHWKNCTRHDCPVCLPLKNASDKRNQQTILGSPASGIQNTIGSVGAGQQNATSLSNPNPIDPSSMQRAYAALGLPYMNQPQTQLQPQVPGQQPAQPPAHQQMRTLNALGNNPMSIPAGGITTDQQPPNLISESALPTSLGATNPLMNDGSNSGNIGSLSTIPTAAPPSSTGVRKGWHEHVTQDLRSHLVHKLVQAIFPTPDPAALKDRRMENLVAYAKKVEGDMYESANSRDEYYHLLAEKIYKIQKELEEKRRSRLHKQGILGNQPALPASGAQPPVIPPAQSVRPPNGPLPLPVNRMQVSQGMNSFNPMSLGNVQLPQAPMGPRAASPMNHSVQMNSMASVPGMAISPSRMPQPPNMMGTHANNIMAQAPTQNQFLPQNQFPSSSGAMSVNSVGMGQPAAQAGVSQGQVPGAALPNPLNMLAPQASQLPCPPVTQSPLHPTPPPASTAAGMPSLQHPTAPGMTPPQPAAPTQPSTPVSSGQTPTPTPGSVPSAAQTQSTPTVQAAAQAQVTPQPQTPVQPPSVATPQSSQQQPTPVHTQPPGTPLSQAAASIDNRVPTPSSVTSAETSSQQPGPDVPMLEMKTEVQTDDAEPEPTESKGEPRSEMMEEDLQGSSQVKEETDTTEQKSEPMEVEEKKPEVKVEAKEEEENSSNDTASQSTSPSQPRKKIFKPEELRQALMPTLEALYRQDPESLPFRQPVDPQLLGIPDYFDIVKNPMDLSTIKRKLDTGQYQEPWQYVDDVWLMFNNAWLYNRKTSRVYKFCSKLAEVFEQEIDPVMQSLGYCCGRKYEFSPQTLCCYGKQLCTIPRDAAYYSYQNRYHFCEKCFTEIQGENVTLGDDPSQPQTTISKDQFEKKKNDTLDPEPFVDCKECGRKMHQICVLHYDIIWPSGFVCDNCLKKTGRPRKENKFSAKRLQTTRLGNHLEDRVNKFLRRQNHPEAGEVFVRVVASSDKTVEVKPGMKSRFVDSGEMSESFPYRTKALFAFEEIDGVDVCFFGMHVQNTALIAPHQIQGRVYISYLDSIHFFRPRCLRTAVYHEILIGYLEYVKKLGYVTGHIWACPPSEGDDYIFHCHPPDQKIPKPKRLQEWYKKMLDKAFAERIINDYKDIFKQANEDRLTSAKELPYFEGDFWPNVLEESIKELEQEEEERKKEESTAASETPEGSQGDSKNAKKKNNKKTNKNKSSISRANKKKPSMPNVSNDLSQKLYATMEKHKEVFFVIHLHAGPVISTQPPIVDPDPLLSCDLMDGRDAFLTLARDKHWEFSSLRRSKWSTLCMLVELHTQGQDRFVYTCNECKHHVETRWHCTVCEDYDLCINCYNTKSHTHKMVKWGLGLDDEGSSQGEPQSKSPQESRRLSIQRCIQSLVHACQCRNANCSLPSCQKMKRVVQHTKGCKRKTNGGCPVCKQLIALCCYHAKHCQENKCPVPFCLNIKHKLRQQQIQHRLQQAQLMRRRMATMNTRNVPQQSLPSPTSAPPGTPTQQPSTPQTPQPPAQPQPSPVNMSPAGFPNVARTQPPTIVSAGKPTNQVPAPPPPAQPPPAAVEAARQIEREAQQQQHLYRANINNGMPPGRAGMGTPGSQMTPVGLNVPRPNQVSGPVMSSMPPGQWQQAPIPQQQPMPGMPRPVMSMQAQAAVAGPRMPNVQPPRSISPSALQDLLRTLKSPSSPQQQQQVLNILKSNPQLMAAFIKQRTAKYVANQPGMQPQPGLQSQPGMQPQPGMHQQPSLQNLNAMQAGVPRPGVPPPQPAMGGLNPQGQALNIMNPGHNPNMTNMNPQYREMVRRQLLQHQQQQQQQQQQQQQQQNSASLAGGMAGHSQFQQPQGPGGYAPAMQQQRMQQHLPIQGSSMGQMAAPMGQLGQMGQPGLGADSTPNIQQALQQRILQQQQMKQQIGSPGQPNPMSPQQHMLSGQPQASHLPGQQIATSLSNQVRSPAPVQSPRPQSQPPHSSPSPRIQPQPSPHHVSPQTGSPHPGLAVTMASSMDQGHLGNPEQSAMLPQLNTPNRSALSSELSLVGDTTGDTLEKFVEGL

Biological target: Sox2 (mouse (endogenous in SVZ NPCs)) (UniProt P48432)
Assay: co-IP; lysates (200-300 µg) of SVZ NPCs differentiated for 7 days without (PBS) or with metformin (1 µM), incubated with 6 µg anti-Sox2 antibody and protein A magnetic beads at 4 °C overnight; beads rinsed 3 times with lysis buffer (25 mM Tris pH 7.4, 10 mM NaCl, 2 mM EDTA, 1 mM EGTA, 0.5% Triton-100, 10% glycerol); blotted with CBP and Sox2 antibodies

binding: binds
Substance: CREB-binding protein (CBP) (from UniProt P45481 1-2441)
